The list shows a part of the results.
Legend:
Assay in all cases: log2 fold change, soluble protein after heating vs DMSO (PISA); higher = thermal stabilisation; K562 lysate, 10 uM; active = over 0.2 and 3.5 SD of the protein, either way, in both replicates (recomputed)
erlotinib = compound: C#Cc1cccc(Nc2ncnc3cc(OCCOC)c(OCCOC)cc23)c1 [erlotinib]
How it was run: (§1)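 Pellets of K562 cells were dounce-homogenised in PBS pH 7.4 with 1 mM MgCl2, and the crude extract was held at 1 mg/mL protein for a 30 min treatment with 10 μM compound. Aliquots were heated for 3 min over 48°C-58°C and pooled before NP-40 was added to 0.5% at 4°C. The supernatant from 21,000xg for 90 min was quantified by TMTpro 16plex LC-MS/MS with channel sums equalised. Values are reported from duplicates as log-two fold change in thermal stability relative to solvent controls.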

Amino acid sequences for entries named in this document (tags omitted). A change or cut given only in a name is not applied to a line headed by its entry.
UniProt Q9H3U1: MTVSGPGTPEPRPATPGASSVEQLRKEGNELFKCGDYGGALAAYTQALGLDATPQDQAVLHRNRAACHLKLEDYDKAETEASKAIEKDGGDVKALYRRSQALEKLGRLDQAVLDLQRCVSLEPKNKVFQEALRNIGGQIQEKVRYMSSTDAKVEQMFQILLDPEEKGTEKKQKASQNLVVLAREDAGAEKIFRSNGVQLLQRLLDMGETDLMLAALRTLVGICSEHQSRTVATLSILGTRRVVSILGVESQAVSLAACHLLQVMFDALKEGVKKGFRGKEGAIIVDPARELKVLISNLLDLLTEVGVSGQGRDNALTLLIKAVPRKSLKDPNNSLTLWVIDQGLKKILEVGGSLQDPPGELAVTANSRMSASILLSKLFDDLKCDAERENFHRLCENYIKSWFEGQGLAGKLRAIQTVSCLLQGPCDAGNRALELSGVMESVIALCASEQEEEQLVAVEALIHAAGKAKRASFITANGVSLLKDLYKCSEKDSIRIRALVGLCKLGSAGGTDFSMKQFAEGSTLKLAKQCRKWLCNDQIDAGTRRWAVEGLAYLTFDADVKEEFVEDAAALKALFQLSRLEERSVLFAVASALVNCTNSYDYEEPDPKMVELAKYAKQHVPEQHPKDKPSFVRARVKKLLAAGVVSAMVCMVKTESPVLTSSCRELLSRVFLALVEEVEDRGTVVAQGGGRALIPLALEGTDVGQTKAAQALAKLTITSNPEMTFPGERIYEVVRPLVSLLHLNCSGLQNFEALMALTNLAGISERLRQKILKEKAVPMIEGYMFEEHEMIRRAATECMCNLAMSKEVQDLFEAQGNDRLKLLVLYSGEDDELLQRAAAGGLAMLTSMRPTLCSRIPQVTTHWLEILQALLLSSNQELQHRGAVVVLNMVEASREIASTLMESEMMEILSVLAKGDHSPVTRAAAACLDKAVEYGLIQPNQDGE
UniProt Q9Y277: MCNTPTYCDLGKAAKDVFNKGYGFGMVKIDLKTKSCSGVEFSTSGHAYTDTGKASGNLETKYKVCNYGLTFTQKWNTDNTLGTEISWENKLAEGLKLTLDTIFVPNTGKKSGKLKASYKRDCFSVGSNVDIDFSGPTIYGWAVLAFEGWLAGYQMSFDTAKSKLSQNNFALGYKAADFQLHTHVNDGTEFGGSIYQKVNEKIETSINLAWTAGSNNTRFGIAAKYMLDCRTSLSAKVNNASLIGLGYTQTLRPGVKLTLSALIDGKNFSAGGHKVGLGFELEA
UniProt P45880: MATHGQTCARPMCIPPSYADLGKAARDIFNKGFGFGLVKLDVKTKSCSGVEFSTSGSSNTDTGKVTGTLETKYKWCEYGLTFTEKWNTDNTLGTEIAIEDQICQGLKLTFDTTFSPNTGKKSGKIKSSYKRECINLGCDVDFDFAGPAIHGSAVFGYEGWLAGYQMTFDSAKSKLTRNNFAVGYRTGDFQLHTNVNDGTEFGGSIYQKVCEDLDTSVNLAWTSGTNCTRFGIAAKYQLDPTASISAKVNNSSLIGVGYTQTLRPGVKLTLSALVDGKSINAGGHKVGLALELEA
UniProt P50552: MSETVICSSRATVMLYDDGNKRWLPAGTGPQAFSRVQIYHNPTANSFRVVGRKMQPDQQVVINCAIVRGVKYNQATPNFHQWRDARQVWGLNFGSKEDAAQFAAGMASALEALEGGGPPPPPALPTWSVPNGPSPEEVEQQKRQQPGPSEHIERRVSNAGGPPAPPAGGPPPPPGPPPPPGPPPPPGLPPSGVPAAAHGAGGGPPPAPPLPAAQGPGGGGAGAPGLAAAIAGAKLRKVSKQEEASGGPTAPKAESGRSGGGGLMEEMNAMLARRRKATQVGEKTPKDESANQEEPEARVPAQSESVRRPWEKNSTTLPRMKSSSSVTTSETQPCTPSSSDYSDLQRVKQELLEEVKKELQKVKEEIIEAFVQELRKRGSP
UniProt P21796, whole entry, looked up: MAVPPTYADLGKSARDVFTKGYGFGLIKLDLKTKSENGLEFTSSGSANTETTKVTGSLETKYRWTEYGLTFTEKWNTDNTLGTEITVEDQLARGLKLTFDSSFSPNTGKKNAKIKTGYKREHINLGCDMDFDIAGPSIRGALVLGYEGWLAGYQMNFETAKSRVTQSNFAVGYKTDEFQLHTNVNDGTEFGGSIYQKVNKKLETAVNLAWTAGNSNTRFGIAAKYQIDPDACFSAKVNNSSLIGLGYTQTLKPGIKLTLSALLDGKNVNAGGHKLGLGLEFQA
UniProt Q9BTM9: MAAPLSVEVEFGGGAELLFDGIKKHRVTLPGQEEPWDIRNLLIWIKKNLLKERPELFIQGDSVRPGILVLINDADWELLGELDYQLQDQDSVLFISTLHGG
UniProt Q9ULK5: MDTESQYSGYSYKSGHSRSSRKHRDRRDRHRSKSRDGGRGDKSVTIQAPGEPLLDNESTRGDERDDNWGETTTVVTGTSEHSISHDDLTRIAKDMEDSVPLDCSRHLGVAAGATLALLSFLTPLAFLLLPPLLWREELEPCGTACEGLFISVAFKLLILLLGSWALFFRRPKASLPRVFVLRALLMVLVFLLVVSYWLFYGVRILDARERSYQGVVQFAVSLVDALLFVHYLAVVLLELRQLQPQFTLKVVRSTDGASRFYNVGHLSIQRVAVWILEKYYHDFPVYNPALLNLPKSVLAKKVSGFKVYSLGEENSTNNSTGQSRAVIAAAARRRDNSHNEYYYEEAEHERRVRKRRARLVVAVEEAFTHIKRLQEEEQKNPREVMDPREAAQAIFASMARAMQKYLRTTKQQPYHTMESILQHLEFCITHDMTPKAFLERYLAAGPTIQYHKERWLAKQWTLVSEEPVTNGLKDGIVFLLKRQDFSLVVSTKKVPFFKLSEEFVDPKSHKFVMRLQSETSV
UniProt Q9BQ65: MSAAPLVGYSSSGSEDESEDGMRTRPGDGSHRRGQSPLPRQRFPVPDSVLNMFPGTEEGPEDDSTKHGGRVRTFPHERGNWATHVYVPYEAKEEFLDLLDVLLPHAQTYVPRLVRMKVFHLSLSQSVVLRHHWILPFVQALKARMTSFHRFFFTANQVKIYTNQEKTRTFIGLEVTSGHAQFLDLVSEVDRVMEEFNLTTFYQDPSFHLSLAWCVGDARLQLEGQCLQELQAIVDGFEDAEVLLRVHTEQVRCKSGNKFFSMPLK
UniProt Q9UPT9: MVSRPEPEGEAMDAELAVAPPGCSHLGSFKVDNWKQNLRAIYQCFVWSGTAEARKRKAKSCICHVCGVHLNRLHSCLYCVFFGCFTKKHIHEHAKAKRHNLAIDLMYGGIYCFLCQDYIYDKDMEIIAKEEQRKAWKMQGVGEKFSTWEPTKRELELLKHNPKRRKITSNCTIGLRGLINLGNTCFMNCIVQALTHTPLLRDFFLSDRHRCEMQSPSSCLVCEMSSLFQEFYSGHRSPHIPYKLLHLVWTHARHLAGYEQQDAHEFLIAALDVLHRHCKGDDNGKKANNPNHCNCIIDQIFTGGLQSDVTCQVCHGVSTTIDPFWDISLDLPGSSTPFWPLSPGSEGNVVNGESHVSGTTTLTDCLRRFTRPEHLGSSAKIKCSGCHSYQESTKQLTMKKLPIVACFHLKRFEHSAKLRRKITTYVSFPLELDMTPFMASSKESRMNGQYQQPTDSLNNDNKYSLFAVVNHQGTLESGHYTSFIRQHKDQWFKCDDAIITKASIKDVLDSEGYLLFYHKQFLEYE
UniProt O14795: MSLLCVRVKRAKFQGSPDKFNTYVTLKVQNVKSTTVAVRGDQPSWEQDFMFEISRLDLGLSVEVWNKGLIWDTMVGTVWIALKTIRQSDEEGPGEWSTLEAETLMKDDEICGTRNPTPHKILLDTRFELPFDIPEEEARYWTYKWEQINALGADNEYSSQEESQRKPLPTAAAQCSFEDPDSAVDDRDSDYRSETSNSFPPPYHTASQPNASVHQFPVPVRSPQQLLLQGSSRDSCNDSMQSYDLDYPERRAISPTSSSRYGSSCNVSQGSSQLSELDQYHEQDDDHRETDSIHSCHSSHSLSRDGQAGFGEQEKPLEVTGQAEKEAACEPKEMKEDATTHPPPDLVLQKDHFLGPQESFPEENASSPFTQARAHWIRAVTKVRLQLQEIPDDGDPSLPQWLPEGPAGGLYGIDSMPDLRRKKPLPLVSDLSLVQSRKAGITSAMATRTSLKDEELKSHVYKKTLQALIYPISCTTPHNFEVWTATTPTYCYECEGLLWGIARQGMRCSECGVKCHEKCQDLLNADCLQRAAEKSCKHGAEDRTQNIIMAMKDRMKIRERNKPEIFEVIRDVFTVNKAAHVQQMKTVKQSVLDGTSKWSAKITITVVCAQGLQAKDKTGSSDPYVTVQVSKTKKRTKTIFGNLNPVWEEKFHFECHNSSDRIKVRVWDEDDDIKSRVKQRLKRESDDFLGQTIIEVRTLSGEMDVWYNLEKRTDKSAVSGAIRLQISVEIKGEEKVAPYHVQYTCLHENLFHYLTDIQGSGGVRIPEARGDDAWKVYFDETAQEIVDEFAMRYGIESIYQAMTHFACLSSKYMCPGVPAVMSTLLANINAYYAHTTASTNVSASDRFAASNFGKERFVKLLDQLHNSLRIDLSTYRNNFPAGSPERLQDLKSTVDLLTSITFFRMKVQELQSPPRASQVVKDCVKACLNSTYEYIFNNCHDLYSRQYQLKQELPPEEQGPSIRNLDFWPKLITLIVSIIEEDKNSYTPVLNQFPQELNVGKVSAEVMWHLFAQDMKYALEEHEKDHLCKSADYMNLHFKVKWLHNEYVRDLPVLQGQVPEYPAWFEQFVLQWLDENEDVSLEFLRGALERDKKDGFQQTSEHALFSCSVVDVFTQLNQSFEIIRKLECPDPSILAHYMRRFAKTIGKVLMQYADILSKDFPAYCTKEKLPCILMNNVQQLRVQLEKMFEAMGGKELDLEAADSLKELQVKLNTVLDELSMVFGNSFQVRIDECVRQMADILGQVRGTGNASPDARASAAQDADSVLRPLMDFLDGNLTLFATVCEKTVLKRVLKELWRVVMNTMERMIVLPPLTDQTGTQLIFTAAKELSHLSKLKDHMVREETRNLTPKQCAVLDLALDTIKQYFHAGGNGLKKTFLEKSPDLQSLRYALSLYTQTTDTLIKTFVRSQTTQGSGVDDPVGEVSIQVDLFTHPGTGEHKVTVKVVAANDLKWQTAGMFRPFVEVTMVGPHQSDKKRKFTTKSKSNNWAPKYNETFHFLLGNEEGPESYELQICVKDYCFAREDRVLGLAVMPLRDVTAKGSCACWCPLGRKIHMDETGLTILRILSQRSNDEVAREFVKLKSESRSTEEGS
UniProt Q16739: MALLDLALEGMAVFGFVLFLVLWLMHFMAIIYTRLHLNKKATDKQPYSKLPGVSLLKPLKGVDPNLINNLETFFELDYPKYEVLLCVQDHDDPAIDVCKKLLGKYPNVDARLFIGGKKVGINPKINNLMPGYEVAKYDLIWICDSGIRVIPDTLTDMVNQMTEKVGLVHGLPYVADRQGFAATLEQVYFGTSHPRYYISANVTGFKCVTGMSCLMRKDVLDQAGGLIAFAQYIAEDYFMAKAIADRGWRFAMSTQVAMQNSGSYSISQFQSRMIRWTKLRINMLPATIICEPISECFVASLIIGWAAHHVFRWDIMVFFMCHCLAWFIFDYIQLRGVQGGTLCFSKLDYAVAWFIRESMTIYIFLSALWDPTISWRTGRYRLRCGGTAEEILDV

[1] = compound: C/C(=N\NC(=O)C1=CC(=CC=C1)S(=O)(=O)N2CCOCC2)/C3=C(C=CC(=C3)Cl)O
How it was run: as §1

[2] = compound: C1=CC(=CC=C1C2=NC3=C(N2)C=C(C=C3)C(=O)N)OC4=CC=C(C=C4)Cl
How it was run: as §1

[3] = compound: C1=CC2=C(C=CC(=C2)/C=C\3/C(=O)NC(=NCC4=CC=CS4)S3)N=C1
How it was run: as §1

[4] = compound: C1=CC2=NC=CN=C2C=C1/C=C/3\C(=O)NC(=O)S3
How it was run: as §1

[5] = compound: C1=CC=C(C=C1)C2=NC(=C(N2)C3=CC=NC=C3)C4=CC(=C(C=C4)Cl)O
How it was run: as §1

[6] = compound: C1=CC=C2C(=C1)C3=NNC4=CC=CC(=C43)C2=O
How it was run: as §1

[7] = compound: C1CCN(C1)C(=O)NC2=CC=CC(=C2)NC3=NC=C(C(=N3)NCCC4=CN=CN4)Br
How it was run: as §1

[8] = compound: C1CN(CCC1(CC2=CC=C(C=C2)Cl)N)C3=NC=NC4=C3C=CN4
How it was run: as §1

IRAK-1-4 Inhibitor I = compound: C1COCCN1CCN2C3=CC=CC=C3N=C2NC(=O)C4=CC(=CC=C4)[N+](=O)[O-] [IRAK-1-4 Inhibitor I]
How it was run: as §1

ibrutinib = compound: C=CC(=O)N1CCC[C@@H](n2nc(-c3ccc(Oc4ccccc4)cc3)c3c(N)ncnc32)C1 [ibrutinib]
How it was run: as §1

[9] = compound: CC(=O)c1cnc2ccc(-c3cc(Cl)c(O)c(Cl)c3)nc2c1N[C@H]1CC[C@H](CN(C)C)CC1
How it was run: as §1

ralimetinib = compound: CC(C)(C)Cn1c(N)nc2ccc(-c3[nH]c(C(C)(C)C)nc3-c3ccc(F)cc3)nc21 [ralimetinib]
How it was run: as §1

[10] = compound: CC(C)(O)CC(=O)NCCn1ccc2ncnc(Nc3ccc(Oc4cccc(C(F)(F)F)c4)c(Cl)c3)c21
How it was run: as §1

[11] = compound: CC(C)C1=C2N=C(C=C(N2N=C1)NCC3=CC=CC=C3)NCCCCCCN
How it was run: as §1

[12] = compound: CC1=C(C(CC(=O)N1)C2=CC=C(C=C2)C(F)(F)F)C(=O)NC3=C(C=C4C(=C3)C=NN4)F
How it was run: as §1

[13] = compound: CC1=C(C2=C(C=C1)C(=O)C3=CC=CC=C3N2CCCN)C
How it was run: as §1

[14] = compound: CC1=C(C=C(C=C1)NC(=O)C2=CC(=CC=C2)C(C)(C)C#N)NC3=CC4=C(C=C3)N=CN(C4=O)C
How it was run: as §1

[15] = compound: CC1=C(C=C(C=C1)NC(=O)C2=CC(=CC=C2)N(C)C)NC(=O)C3=CC=C(C=C3)O
How it was run: as §1

[16] = compound: CC1=CC=C(C=C1)SC2=C3C=C(SC3=CN=C2)C(=O)N
How it was run: as §1

Measured: log2 fold change

UNC45A (UniProt Q9H3U1)
inactive: erlotinib 0.016 | [1] 0.014 | [2] -0.039 | [3] -0.006 | [4] 0.001 | [5] -0.024 | [6] -0.037 | [7] -0.015 | [8] -0.002 | IRAK-1-4 Inhibitor I -0.001 | ibrutinib 0.002 | [9] -0.008 | ralimetinib 0.03 | [10] -0.012 | [11] -0.009 | [12] -0.007 | [13] 0.002 | [14] 0.004 | [15] 0.002 | [16] -0.007

VDAC3 (UniProt Q9Y277)
inactive: erlotinib 0.015 | [1] 0.015 | [2] -0.025 | [3] -0.01 | [4] 0.003 | [5] 0.002 | [6] -0.024 | [7] -0.003 | [8] 0.017 | IRAK-1-4 Inhibitor I 0.034 | [9] 0.01 | ralimetinib -0.006 | [10] -0.023 | [11] 0.008 | [12] -0.039 | [13] -0.007 | [14] 0.042 | [15] -0.029 | [16] 0.013

VDAC2 isoform 2 (UniProt P45880)
inactive: erlotinib 0.015 | [1] 0.038 | [2] -0.017 | [3] -0.004 | [4] -0.005 | [5] 0.002 | [6] -0.006 | [7] 0.019 | [8] 0.013 | IRAK-1-4 Inhibitor I 0.021 | [9] 0.007 | ralimetinib -0.004 | [10] -0.03 | [11] 0.01 | [12] -0.007 | [13] 0.008 | [14] 0.03 | [15] -0.017 | [16] -0.002

VASP (UniProt P50552)
inactive: erlotinib 0.001 | [1] -0.028 | [2] 0.017 | [3] -0.006 | [4] -0.035 | [5] -0.003 | [6] -0.02 | [7] -0.006 | [8] 0.035 | IRAK-1-4 Inhibitor I 0.014 | ibrutinib -0.002 | [9] 0.002 | ralimetinib -0.003 | [10] -0.018 | [11] -0.009 | [12] -0.007 | [13] 0.038 | [14] 0.014 | [15] -0.014 | [16] 0.01

VDAC1 (UniProt P21796)
inactive: erlotinib -0.001 | [1] -0.007 | [2] -0.001 | [3] -0.013 | [4] 0.016 | [5] 0 | [6] 0.021 | [7] 0.009 | [8] 0.004 | IRAK-1-4 Inhibitor I 0.026 | [9] 0.017 | ralimetinib -0.008 | [10] -0.041 | [11] -0.008 | [12] -0.021 | [13] -0.009 | [14] 0.011 | [15] -0.013 | [16] 0.009

2 records picked at random from the list so far, as already listed:
VASP (UniProt P50552)
inactive: erlotinib 0.001 | [1] -0.028 | [2] 0.017 | [3] -0.006 | [4] -0.035 | [5] -0.003 | [6] -0.02 | [7] -0.006 | [8] 0.035 | IRAK-1-4 Inhibitor I 0.014 | ibrutinib -0.002 | [9] 0.002 | ralimetinib -0.003 | [10] -0.018 | [11] -0.009 | [12] -0.007 | [13] 0.038 | [14] 0.014 | [15] -0.014 | [16] 0.01

VDAC1 (UniProt P21796)
inactive: erlotinib -0.001 | [1] -0.007 | [2] -0.001 | [3] -0.013 | [4] 0.016 | [5] 0 | [6] 0.021 | [7] 0.009 | [8] 0.004 | IRAK-1-4 Inhibitor I 0.026 | [9] 0.017 | ralimetinib -0.008 | [10] -0.041 | [11] -0.008 | [12] -0.021 | [13] -0.009 | [14] 0.011 | [15] -0.013 | [16] 0.009

Remaining list, next part:

URM1 isoform 2 (UniProt Q9BTM9)
inactive: erlotinib 0.03 | [1] 0.008 | [2] 0.065 | [3] -0.126 | [4] -0.049 | [5] -0.014 | [6] -0.132 | [7] 0.015 | [8] 0.068 | IRAK-1-4 Inhibitor I -0.068 | ibrutinib -0.007 | [9] -0.083 | ralimetinib 0.059 | [10] 0.048 | [11] -0.03 | [12] -0.033 | [13] 0.014 | [15] 0.068 | [16] -0.032

VANGL2 (UniProt Q9ULK5)
inactive: erlotinib 0.111 | [2] -0.013 | [4] 0.018 | [5] -0.038 | IRAK-1-4 Inhibitor I 0.114 | ibrutinib 0 | [9] -0.183 | ralimetinib -0.06 | [10] -0.124 | [11] -0.005 | [13] 0.184 | [14] 0.236 | [15] 0.121 | [16] -0.223

VGF (UniProt O15240)
inactive: erlotinib 0.213 | [1] 0.105 | [2] 0.279 | [3] -0.04 | [6] -0.12 | [7] 0.068 | [8] -0.044 | [11] -0.308 | [13] -0.135

VCX3B (UniProt Q9H321)
inactive: erlotinib -0.066 | [2] 0.036 | [4] 0.006 | [5] -0.051 | [7] -0.013 | [8] -0.058 | IRAK-1-4 Inhibitor I -0.024 | ibrutinib -0.052 | [9] -0.045 | ralimetinib 0.001 | [10] 0.07 | [11] -0.04 | [12] 0.048 | [13] 0.067 | [14] 0.001 | [15] 0.113 | [16] -0.019

ULK1 (UniProt O75385)
inactive: erlotinib 0.014 | [1] -0.073 | [2] -0.12 | [3] -0.122 | [5] 0.13 | [6] -0.023 | [7] -0.028 | [8] -0.109 | IRAK-1-4 Inhibitor I -0.093 | [9] -0.02 | ralimetinib -0.285 | [10] -0.1 | [11] 0.055 | [13] -0.029 | [14] -0.022 | [15] 0.306 | [16] -0.086

URI1 isoform 4 (UniProt O94763)
inactive: erlotinib -0.021 | [2] 0.06 | [4] 0.12 | [5] 0.018 | [7] -0.181 | [8] -0.055 | IRAK-1-4 Inhibitor I 0.069 | ibrutinib -0.069 | [9] -0.001 | ralimetinib 0.054 | [10] -0.078 | [11] 0.05 | [12] 0.037 | [13] 0.019 | [14] -0.034 | [15] -0.018 | [16] 0.085

USB1 (UniProt Q9BQ65)
inactive: erlotinib 0.216 | [1] 0.015 | [2] -0.08 | [3] -0.011 | [5] 0.092 | [6] 0.106 | [7] 0.019 | [8] 0.001 | IRAK-1-4 Inhibitor I 0.024 | [9] 0.132 | ralimetinib 0.081 | [10] -0.169 | [11] 0.115 | [12] 0.037 | [13] 0.016 | [14] 0.073 | [15] -0.075 | [16] 0.159

USP20 (UniProt Q9Y2K6)
inactive: erlotinib 0.024 | [2] 0.01 | [4] 0.138 | [5] -0.052 | [7] 0.058 | [8] 0.045 | IRAK-1-4 Inhibitor I -0.012 | ibrutinib 0.144 | ralimetinib -0.014 | [10] -0.167 | [11] 0.027 | [13] 0.01 | [14] -0.114 | [15] 0.078

USP22 (UniProt Q9UPT9)
inactive: erlotinib 0.072 | [1] 0.019 | [2] -0.025 | [3] 0.048 | [4] -0.022 | [5] -0.003 | [6] -0.013 | [7] -0.021 | [8] 0.004 | IRAK-1-4 Inhibitor I -0.005 | ibrutinib -0.031 | ralimetinib 0.023 | [10] 0.006 | [11] 0.027 | [12] -0.057 | [13] -0.034 | [14] 0.065 | [15] 0.056

ULK3 isoform 4 (UniProt Q6PHR2)
inactive: erlotinib 0.156 | [1] 0.149 | [2] -0.008 | [3] -0.151 | [4] -0.053 | [6] 0.177 | [7] 0.179 | [8] 0.01 | ibrutinib -0.08 | [9] -0.024 | [11] -0.091 | [13] -0.06 | [14] 0.094 | [16] 0.08

UNC13B isoform 2 (UniProt O14795)
inactive: erlotinib -0.145 | [1] -0.084 | [2] -0.119 | [3] -0.081 | [5] 0.044 | [6] -0.102 | [7] -0.099 | [8] -0.028 | IRAK-1-4 Inhibitor I 0.061 | [9] -0.054 | ralimetinib 0.003 | [10] -0.032 | [11] -0.08 | [12] -0.089 | [13] -0.061 | [14] -0.032 | [15] 0.024 | [16] 0.034

UGCG (UniProt Q16739)
inactive: erlotinib -0.019 | [1] 0.082 | [2] 0.15 | [3] -0.059 | [4] 0.134 | [5] 0.003 | [6] -0.007 | IRAK-1-4 Inhibitor I 0.003 | ibrutinib -0.136 | ralimetinib 0.061 | [10] -0.023 | [11] 0.079 | [12] 0.041 | [13] -0.211 | [14] -0.026 | [15] -0.001
